# Reference: PubChem BioAssay AID540276 (National Center for Advancing Translational Sciences (NCATS), 2011)
# Where “and” joins values, the source holds several entries; their conditions need not be identical. Equal values may be shown once. Hit rate of the full screen: of about 300,000 compounds, about 5,400 (1.8%) were called active. This list was built around the results that the source calls inconclusive (neither active nor inactive); the mix of calls is not that of the screen. The call rests on the fitted dose curve; tested in HEK293 cells. Where the call is inconclusive, the potency comes from a doubtful curve fit.
# Experiment: qHTS for inhibitors of binding or entry into cells for Marburg Virus
# Conditions: Marburg virus pseudotyped entry inhibition, cell reporter; series mostly up to 37.8 µM
# Potency means the concentration at half of the fitted maximal effect.
row,SMILES,Potency
1,COc1ccc(-c2nc(-c3ccccc3)c(-c3cc([N+](=O)[O-])ccc3C)[nH]2)cc1O,inactive
2,CCCCCCNC(=O)CCCCCNS(=O)(=O)c1ccc(Br)cc1,"inconclusive: 6.31 µM [inhibitor, single point]"
3,CCN1CCN(C(c2ccccc2F)c2nnnn2Cc2ccc3c(c2)OCO3)CC1 (stereo not drawn),"inconclusive: 35.5 µM [inhibitor, partial curve, poor fit]"
4,Cc1nc2sc3c(NCc4ccco4)ncnc3c2c2c1COC(C)(C)C2,"inconclusive: 12.6 µM [inhibitor, partial curve, poor fit]"
5,CCC(=O)Oc1ccc(C(=O)Nc2cccc(C(=O)c3ccccc3)c2)cc1,inactive
6,CCc1nccn1S(=O)(=O)c1cc(C)c(OC)cc1C,inactive
7,COc1ccc(O[C@H]2C=C[C@@H](c3ccccc3)O[C@H]2CO/N=C2/[C@H]3O[C@@H]3[C@@H](O)[C@H]3[C@H]2CCn2c(=O)n(-c4ccccc4)c(=O)n23)cc1,inactive
8,CCOc1cccc(CNc2ccc(O)cc2)c1OCc1ccc(Cl)cc1Cl,"inconclusive: 22.4 µM [inhibitor, partial curve, poor fit]"
9,Cc1cccc2sc(NC(=O)CN(C)S(=O)(=O)c3ccc(Br)s3)nc12,"inconclusive: 35.5 µM [inhibitor, single point]"
10,Cc1ccc(OCC(=O)N(c2ccccn2)C2CCCCC2)c(C)c1,inactive
11,Cc1cc(C(F)F)n2ncc(C(=O)NCc3ccccc3C(F)(F)F)c2n1,"inconclusive: 11.2 µM [inhibitor, partial curve, poor fit]"
12,CCOC(=O)CSCC(=O)Nc1ccc(S(=O)(=O)N2CCCCC2)cc1,"inconclusive: 1.26 µM [activator, single point]"
13,CC(C)(C)c1cc(NC(=O)Nc2ccc(Cl)cc2Cl)no1,"inconclusive: 35.5 µM [inhibitor, single point]"
14,COC1=CC(=O)C(OC)=C(OC)C1=O,"inconclusive: 11.2 µM [inhibitor, partial curve, poor fit]"
15,CN(C)c1ccc(/C=C2\SC(=O)N(CC(O)Cn3c4ccccc4c4ccccc43)C2=O)cc1 (stereo not drawn),"inconclusive: 6.31 µM [activator, single point]"
16,COc1ccc(NC(=O)Cn2nnc(-c3ccccc3NS(=O)(=O)c3ccccc3)n2)cc1,active: 8.91 µM
17,CC(C)C1Oc2ccccc2N(CC(=O)N(Cc2ccccn2)CC2CCCO2)C1=O (stereo not drawn),inactive
18,COc1ccc(N2CCN(Cc3nc(-c4ccc(Cl)cc4Cl)no3)CC2)cc1,"inconclusive: 18.3 µM [inhibitor, partial curve, poor fit]"
19,Cc1cc(C)c(-c2cc(NC(=O)COC(=O)c3ccc(NC(=O)CC#N)cc3)n(-c3ccccc3)n2)cc1C,inactive
20,COc1ccc(S(=O)(=O)n2ccnc2)cc1C(C)(C)C,inactive
21,CCOC(=O)C1CCN(C(=O)C2CCN(c3nc4ccc(OC)cc4s3)CC2)CC1,"inconclusive: 0.82 µM [activator, partial curve, poor fit]"
22,O=C(O)C1C2CCC(C2)C1C(=O)Nc1ccccc1 (stereo not drawn),inactive
23,CN1CCN(C2=Nc3ccccc3Oc3ccc(Cl)cc32)CC1,active: 16.4 µM and active: 3.16 µM and active: 11.6 µM

row,SMILES,Potency
1,O=c1c(-c2ccc(F)cc2)coc2c3c(ccc12)OCCO3,inactive
2,CCCc1cc(C(=O)NNC(=S)NCC)c2ccccc2n1,"inconclusive: 1.26 µM [activator, single point]"
3,Cc1nn(-c2ccccn2)c2c1C(=O)C(Br)CC2 (stereo not drawn),"inconclusive: 6.31 µM [inhibitor, full curve, poor fit]"
4,C=CCn1c(SCC(=O)c2ccc(OC)cc2)nnc1-c1cc2cccc(OC)c2o1,"inconclusive: 6.31 µM [activator, single point]"
5,O=C(/C=C/c1cccnc1)c1ccc([N+](=O)[O-])cc1,"inconclusive: 1 µM [inhibitor, full curve, poor fit]"
6,COC(=O)Nc1ccc(S(=O)(=O)N2CCCCC2C(=O)NCc2ccco2)cc1 (stereo not drawn),"inconclusive: 15.8 µM [inhibitor, single point]"
7,CCCCC(=O)N(CCOC)c1nnc(-c2ccccc2C)s1,"inconclusive: 10 µM [inhibitor, partial curve, poor fit]"
8,CC(=O)Nc1ccc(Nc2cc(C)nc3c(-c4ccc(Cl)cc4)cnn23)cc1,"inconclusive: 2.91 µM [activator, partial curve, poor fit]"
9,CN(Cc1cccnc1)C(=O)c1cc(COc2ccc3ncccc3c2)on1,"inconclusive: 2.82 µM [inhibitor, single point]"
10,Cc1cc(C)cc(N(CC(=O)N/N=C/c2ccncc2)S(=O)(=O)c2ccccc2)c1,"inconclusive: 0.355 µM [activator, partial curve, poor fit]"
11,CC(C)n1c(=N)c(C(=O)NCCc2ccccc2)cc2c(=O)n3ccccc3nc21,"inconclusive: 22.4 µM [inhibitor, single point]"
12,COCCn1c(COc2cccc(OC)c2)nnc1SCC(=O)NC1CCCCC1,inactive
13,N#CC1=C(N)N=C(SCc2cccc3ccccc23)C(C(N)=O)C12CCCCC2 (stereo not drawn),"inconclusive: 10 µM [inhibitor, partial curve, poor fit]"
14,N#Cc1c(SCC(=O)N2CCCCC2)nsc1SCC(=O)N1CCCCC1,inactive
15,COc1ccc(-n2ncc3c(=O)n(CC(=O)Nc4ccc5c(c4)OCCO5)cnc32)cc1,"inconclusive: 11.2 µM [inhibitor, partial curve, poor fit]"
16,NC(=O)c1ccsc1NC(=O)COC(=O)C1CC2CCCC(C1)C2=O (stereo not drawn),inactive
17,COc1ccc(C(=O)NCCc2nnc3ccc(SCC(=O)N4CCCC4)nn23)cc1,"inconclusive: 1.41 µM [activator, partial curve, poor fit]"
18,CCN(C(=O)c1cc2c(=O)[nH]c3ccc(C)cc3c2s1)c1cccc(C)c1,"inconclusive: 10 µM [inhibitor, partial curve, poor fit]"
19,COC(=O)CS(=O)(=O)c1nnc([C@H](Cc2ccccc2)NC(=O)OC(C)(C)C)o1,"inconclusive: 35.5 µM [inhibitor, single point]"
20,Nc1nonc1C(=O)NCCNS(=O)(=O)c1ccc(F)cc1,"inconclusive: 0.199 µM [inhibitor, full curve, poor fit]"
21,COc1ccccc1NC(=O)C1CC(C(C)C)OC1=O (stereo not drawn),"inconclusive: 6.31 µM [inhibitor, single point]"
22,O=C(O)Cc1ccc(N=Cc2c(O)ccc3ccccc23)cc1,inactive
23,COC(=O)c1c(Oc2ccc(C(C)=O)cc2)nnc(-c2ccccc2)c1-c1ccccc1,active: 6.31 µM

row,SMILES,Potency
1,CC1=C(C)/C(=N/OC(=O)c2cccc([N+](=O)[O-])c2)C=CC1=O,"inconclusive: 25.9 µM [inhibitor, single point]"
2,COC(=O)c1nc(NC(=O)c2ccc(Br)cc2)n[nH]1,inactive
3,CCOC(=O)c1ccccc1NC(=O)c1cc2c(=O)oc3ccc(C)cc3c2s1,inactive
4,CC1=C(C(=O)N2CCN(c3cccc(C(F)(F)F)c3)CC2)C2(CCCCC2)OC1=O,"inconclusive: 5.62 µM [inhibitor, single point]"
5,O=C(NCc1ccc(F)cc1)c1cc(-c2ccco2)on1,inactive
6,CCOC(=O)C1=C(O)c2ccccc2C(=O)/C1=C\c1ccc(CC)cc1,active: 2.06 µM
7,Cc1ccc(CSc2nnc(-c3cccnc3)o2)cc1,"inconclusive: 35.5 µM [activator, single point]"
8,CCOc1ccc(-c2csc(NC(=O)C3CCCO3)n2)cc1 (stereo not drawn),"inconclusive: 29.1 µM [inhibitor, single point]"
9,Cc1ccccc1OCC(O)Cn1c(=N)n(CCN2CCCCC2)c2ccccc21 (stereo not drawn),"inconclusive: 7.08 µM [inhibitor, partial curve, poor fit]"
10,COC(=O)C1=C(C(=O)OC)[C@@H]2N(C)c3ccccc3[C@@]23CCC(=O)N(Cc2ccc(OC)cc2)C3=N1,inactive
11,Cc1ccc(-c2nc3ccccc3o2)cc1NC(=S)NC(=O)/C=C/c1ccco1,inactive
12,O=C(CCC(=O)N(CC(=O)NC1CCCCC1)c1ccccc1F)Nc1nccs1,"inconclusive: 7.08 µM [inhibitor, full curve, poor fit]"
13,O=S(=O)(c1ccc(Oc2ncnc3scc(-c4ccccc4)c23)cc1)N1CCOCC1,"inconclusive: 3.16 µM [inhibitor, full curve, poor fit]"
14,O=C(COc1ccc(Cl)cc1Br)NC(=O)NC1CCCC1,inactive
15,Cc1c(Cl)cccc1NC(=O)CNC(=O)c1ccccc1F,inactive
16,COC(=O)c1ccc(CN2CCCC(CO)(Cc3ccc(F)cc3F)C2)cc1 (stereo not drawn),"inconclusive: 8.91 µM [inhibitor, partial curve, poor fit]"
17,N#C/C(=C\c1cccs1)C(=O)NCC1CCCO1 (stereo not drawn),inactive
18,O=C(CCS(=O)(=O)c1ccc(F)cc1)N1CCOCC1,"inconclusive: 35.5 µM [activator, single point]"
19,Cc1ccc(Nc2nnc(-c3ccc(C)c(S(=O)(=O)NCc4nc5ccccc5[nH]4)c3)c3ccccc23)cc1,"inconclusive: 35.5 µM [inhibitor, single point]"
20,CC(=O)N1CCN(C(=O)CSc2cc(C)c(Br)cc2C)CC1,inactive
21,N#Cc1ccc(Oc2cccnc2)cc1C#N,"inconclusive: 0.092 µM [inhibitor, full curve, poor fit]"
22,CC1Cc2cc(/C(O)=C3/C(=O)C(=O)N(CCCn4ccnc4)C3c3cccnc3)ccc2O1 (stereo not drawn),"inconclusive: 29.1 µM [activator, single point]"

# Looked up one by one from the list above, four records:
row,SMILES,Potency
3,CCOC(=O)c1ccccc1NC(=O)c1cc2c(=O)oc3ccc(C)cc3c2s1,inactive
17,COc1ccc(C(=O)NCCc2nnc3ccc(SCC(=O)N4CCCC4)nn23)cc1,"inconclusive: 1.41 µM [activator, partial curve, poor fit]"
23,CN1CCN(C2=Nc3ccccc3Oc3ccc(Cl)cc32)CC1,active: 16.4 µM and active: 3.16 µM and active: 11.6 µM
1,COc1ccc(-c2nc(-c3ccccc3)c(-c3cc([N+](=O)[O-])ccc3C)[nH]2)cc1O,inactive
